Data published in the supplement of paper PMC9135407.
Several values for one entry are separate records, joined by “and”; a condition that tells them apart may be missing. Equal values may be shown once. Where a name gives a salt, the structure may show the parent alone. ± gives the standard deviation of the averaged measurements. The list shows a part of the results. Plates or batches differ in their baseline, so values are only roughly comparable.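 Primary human stellate myofibroblasts activated in culture; inactivation shown by regained lipid droplets. Readout: fraction of Hoechst-counted cells exceeding a per-plate Bodipy threshold, duplicate wells, each plate with DMSO negative and nortriptyline positive controls. Hits: control-normalized score beyond the plate's top-tenth-percentile nortriptyline wells, or among its three best wells. Final well concentrations unstated.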

Tested on: primary human hepatic stellate cells (donor 1)
Assay: percent Bodipy-positive cells; higher = more lipid droplet accumulation
Conditions: 48 h
[1] = library stock concentration: 3.33 mM
[2] = library stock concentration: 10 mM
[3] = library stock concentration: 1 mM
[4] = library stock concentration: 80 uM
[5] = library stock concentration: 400 uM
[6] = library stock concentration: 2 mM
[7] = library stock concentration: 5 mM

## O=C(O)CC1CC(c2ccccc2)=NO1 (configuration not stated)
[1]
  percent Bodipy-positive cells: 32.5 ± 2.6%
[2]
  percent Bodipy-positive cells: 34.6 ± 10%

## CCCCCC(O)C=CC1CC2CC(C1CC=CCCCC(=O)O)C2(C)C [15(R)-Pinane Thromboxane A2]
[3]
  percent Bodipy-positive cells: 12 ± 7.2%

## OC[C@H]1O[C@@H](O[C@@H]2[C@@H](CO)OC(O)(CO)[C@H]2O)[C@H](O)[C@@H](O)[C@H]1O (mixture of isomers) [Lactulose]
Library stock concentration: 5.8 mM
  percent Bodipy-positive cells: 1.66 ± 0.21%
[2]
  percent Bodipy-positive cells: 23.4 ± 1.7%

## O=C(O)CCCC=CCC1C2CCC(O2)C1CNNC(=O)Nc1ccccc1 (configuration not stated)
[3]
  percent Bodipy-positive cells: 12.3% and 11.6%

## COC[C@H](NC(=O)c1cnc(C)s1)C(=O)N[C@@H](COC)C(=O)N[C@@H](Cc1ccccc1)C(=O)[C@@]1(C)CO1 [Oprozomib (ONX 0912)]
[1]
  percent Bodipy-positive cells: 90.9 ± 5.3%
[2]
  percent Bodipy-positive cells: 100%

## Cc1cc(Nc2nc(N[C@@H](C)c3ncc(F)cn3)ncc2Cl)[nH]n1
[4]
  percent Bodipy-positive cells: 19.6 ± 4.5%
[5]
  percent Bodipy-positive cells: 28.2 ± 15%
[6]
  percent Bodipy-positive cells: 15.1 ± 2%
[1]
  percent Bodipy-positive cells: 12 ± 3%
[2]
  percent Bodipy-positive cells: 31.1% and 14.4%

## NCCS(=O)O [Hypotaurine]
[2]
  percent Bodipy-positive cells: 61.4 ± 27%

## O=C(O)c1cc(O)c2ccc(Cl)cc2n1 [7-Chlorokynurenic acid]
[2]
  percent Bodipy-positive cells: 4.88 ± 1.7%

## O=C(O)CCC/C=C\C[C@@H]1CO[C@H](C(F)(F)F)O[C@@H]1c1ccccc1O
[2]
  percent Bodipy-positive cells: 7.29 ± 2.4%

## COc1ccc(-c2cc(C(F)F)nn2-c2ccc(S(N)(=O)=O)cc2)cc1F [Deracoxib]
[7]
  percent Bodipy-positive cells: 11.1 ± 2.6%

## CC(Oc1ccccc1)C(=O)N[C@@H]1C(=O)N2[C@@H]1SC(C)(C)[C@@H]2C(=O)O (some centres not stated) [Phenethicillin potassium salt]
  percent Bodipy-positive cells: 6.07 ± 2%

## CC(Oc1ccccc1)C(=O)N[C@@H]1C(=O)N2[C@@H]1SC(C)(C)[C@@H]2C(=O)O (some centres not stated) [Phenethicillin potassium]
[7]
  percent Bodipy-positive cells: 12.4 ± 1.3%

## N[C@@H](C(=O)N[C@@H]1C(=O)N2C(C(=O)O)=C(Cl)CS[C@H]12)c1ccccc1
[2]
  percent Bodipy-positive cells: 5.68 ± 0.8%

## N[C@@H](C(=O)N[C@@H]1C(=O)N2C(C(=O)O)=C(Cl)CS[C@H]12)c1ccccc1 [Cefaclor]
  percent Bodipy-positive cells: 26.2 ± 7.6%
Library stock concentration: 5.4 mM
  percent Bodipy-positive cells: 21.6 ± 2.1%
[2]
  percent Bodipy-positive cells: 34.1% and 18.6%

## C[C@]12CC[C@@H]3c4ccc(O)cc4CC[C@H]3[C@@H]1C[C@H](O)[C@@H]2O
[2]
  percent Bodipy-positive cells: 36.3 ± 3.2%

## Fc1cc(-c2ccnc(Nc3ccc(-n4cnc(N5CCOCC5)n4)cc3)n2)cc(N2CCOCC2)c1
[4]
  percent Bodipy-positive cells: 54.8 ± 11%
[5]
  percent Bodipy-positive cells: 68.1 ± 2.2%
[6]
  percent Bodipy-positive cells: 36.3 ± 10%
[2]
  percent Bodipy-positive cells: 48.8 ± 1.6%

## CCCCC/C=C\C/C=C\C/C=C\C/C=C\CCCC(=O)OC(CO)CO [2-Arachidonoyl Glycerol]
[3]
  percent Bodipy-positive cells: 9.03 ± 0.55%

## CCCCC/C=C\C/C=C\C/C=C\C/C=C\CCCC(=O)OC(CO)CO [2-Arachidonoylglycerol]
[3]
  percent Bodipy-positive cells: 7.22 ± 3%

## NOCC(=O)O [O-(Carboxymethyl)hydroxylamine hemihydrochloride]
[2]
  percent Bodipy-positive cells: 39.2 ± 11%

## Cl.Clc1ccc(CCCOCCCN2CCCCC2)cc1
[2]
  percent Bodipy-positive cells: 66.9 ± 2%
